From US20130005833A1, “PHOTO-RESPONSIVE SUPRAMOLECULAR HYDROGELS” (priority 2011, published 2013)

Assay: Response of the gel to addition of vancomycin
Settings: one equivalent of vancomycin hydrochloride added to the surface of the gel

In the case of Azo-Lys-D-Phe-D-Ala, the “phase change of the gel upon addition of vancomycin” value is reported as “gradually changed to a homogeneous solution”.

For Azo-Lys-Phe-Ala, the “phase change of the gel upon addition of vancomycin” value was “no phase change”.
